The list shows a part of the results.

Chains of the proteins cited; added tags and fusions are not shown.
UniProt Q0JBA9, entry or part of it: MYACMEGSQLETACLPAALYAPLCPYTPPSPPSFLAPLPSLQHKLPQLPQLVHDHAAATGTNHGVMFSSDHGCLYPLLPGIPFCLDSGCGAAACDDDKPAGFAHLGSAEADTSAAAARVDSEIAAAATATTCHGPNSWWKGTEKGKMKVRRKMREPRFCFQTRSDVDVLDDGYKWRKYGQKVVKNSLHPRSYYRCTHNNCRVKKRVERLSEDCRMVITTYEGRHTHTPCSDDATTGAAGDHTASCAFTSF

The target in the experiment is OsWRKY34 (Oryza sativa, UniProt Q0JBA9 1-250). Put plainly: protein-binding microarray (RPBM); PBS, 2% BSA, 51.3 ng/ul salmon testes DNA, 50 uM zinc acetate, 200 nM TF, 25 C, 1 h; high values mean tight binding. As to conditions: protein: recombinant; tags: N-terminal polyhistidine and DsRed monomer fusion (pET32a); label: CyDye5-dUTP incorporated in the synthesized complementary strand; 3' TTTTT single-stranded linker to array surface; dsDNA, one strand shown. The method, boiled down:
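Binding signal is defined as the fluorescence intensity of each feature in arbitrary units, read on an Axon 4000B scanner. Transcription factors with N-terminal polyhistidine and DsRed fusions came from E. coli BL21-CodonPlus and were purified on Ni–NTA. They were incubated at 200 nM for 1 h at 25 °C on a custom Agilent array that had been made double-stranded with Cy5-dUTP, with 50 µM zinc acetate present, and the array was washed.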
On to “TCCACATCACCACTTTGGTTCCTCCCATTTTTCATTTCAACGGAGTCACCTAGTGCAG”, for which the binding signal was 8390 fluorescence intensity (a.u.).

As to “ACGAACGGTCAAACATGTTTAAAAAAGTCAACGGCGTTAACGGAGTCACCTAGTGCAG”, the binding signal was 9890 fluorescence intensity (a.u.).

As to “AAAGAAGAAACCTTCTCTACTCCCTCTGTCTCCTCACATCCGGAGTCACCTAGTGCAG”, the binding signal was 8890 fluorescence intensity (a.u.).

In the case of “GGTCATCACTCGGTCAGGTTCTCGTCTTGCAAATCCGCTCCGGAGTCACCTAGTGCAG”, the binding signal was 8660 fluorescence intensity (a.u.).

As to “AAATTTGTCTTATAATATAGCTACTTCTTCACCTATTTTCCGGAGTCACCTAGTGCAG”, the binding signal was 9220 fluorescence intensity (a.u.).

For the sequence “TGGTGTTCATATTTTGGCCCGTGCTCATCAGTTTGTTTGTCGGAGTCACCTAGTGCAG”, the binding signal was 11000 fluorescence intensity (a.u.).

As to “AAACATATCATTTGCAGTACTATCCTTTGACTTTGAGTGACGGAGTCACCTAGTGCAG”, the binding signal is 8170 fluorescence intensity (a.u.).

For the sequence “TTATTACGTCATATTTCCGCCCAACCATGAGCCCATTTCACGGAGTCACCTAGTGCAG”, the binding signal was 8340 fluorescence intensity (a.u.).

As for “AGGGTGTGTTTAATTCTTTGGGTGTAAAATTATTGAAGTACGGAGTCACCTAGTGCAG”, the binding signal is 11200 fluorescence intensity (a.u.).

With “TGAGGAACTCCAACACATCCCATGCATACAACATTTTGACCGGAGTCACCTAGTGCAG”, the binding signal was 9920 fluorescence intensity (a.u.).

Regarding “ACTACCTCCACTCCACCGATCAATCTGAGCCACTACGCCTCGGAGTCACCTAGTGCAG”, the binding signal was 9810 fluorescence intensity (a.u.).

For the sequence “GTATTATTATTTATGTTTCTCTAGCTATCTAAATATATAACGGAGTCACCTAGTGCAG”, the binding signal is 10100 fluorescence intensity (a.u.).

As to “GTACAATGTAATAGACCACACAGCCTCTTATTCCTATTTCCGGAGTCACCTAGTGCAG”, the binding signal was 8140 fluorescence intensity (a.u.).

Regarding “GACTGCAATTAATTGTTAACCACGAGCCATTTTTTTAATTCGGAGTCACCTAGTGCAG”, the binding signal is 8800 fluorescence intensity (a.u.).

Regarding “AATCCGTCATTCGTAAATGTTTACTGTAGCACCACATTATCGGAGTCACCTAGTGCAG”, the binding signal was 9010 fluorescence intensity (a.u.).

Turning to “TTCGTTCCGTTCTCTCTCTTCCTTGCCCTATCCGGAACAGCGGAGTCACCTAGTGCAG”, the binding signal was 8280 fluorescence intensity (a.u.).

Consider “CTTTTATTTTGCTGAAAATCAATTGGACTCGTTTGACCGTCGGAGTCACCTAGTGCAG”, for which the binding signal is 8410 fluorescence intensity (a.u.).

With “ACAATATAAGTCATTCTAGCATTTCCCATATTCATATTGACGGAGTCACCTAGTGCAG”, the binding signal is 8520 fluorescence intensity (a.u.).

Regarding “TTTTCCCCTATGTGTGGTGGTGGTCCCAATTCTTTAATGTCGGAGTCACCTAGTGCAG”, the binding signal is 8320 fluorescence intensity (a.u.).

As for “TTGGCGTATCCACTGAGTTTCTTTTGATCTTCACTAATCTCGGAGTCACCTAGTGCAG”, the binding signal was 8910 fluorescence intensity (a.u.).

For “TCCATCAGTCTTGCCCAAATTTATCTCGATCTCACGTGCTCGGAGTCACCTAGTGCAG”, the binding signal was 9180 fluorescence intensity (a.u.).

As for “GCGTCACACCTCGCCAGGCGCCAGCCACATCAAAGCTTCCCGGAGTCACCTAGTGCAG”, the binding signal was 8250 fluorescence intensity (a.u.).

With “GAAATTTATGGTAAAATTTTTCTTACCTCTCAGTATAATTCGGAGTCACCTAGTGCAG”, the binding signal was 8970 fluorescence intensity (a.u.).

Take “TCTATAGCGTTGTTGCAAGCTATGTTGTTTAGGGGCGGATCGGAGTCACCTAGTGCAG”: the binding signal is 10700 fluorescence intensity (a.u.).

As for “GTTTTTCTTTGTTTTCTCTTTTCTTTTGATGTTTTTTTAGCGGAGTCACCTAGTGCAG”, the binding signal is 8040 fluorescence intensity (a.u.).

Consider “GCAGCCAGTTACATTTTTCAGAGAGGTGAGTTTATATTCCCGGAGTCACCTAGTGCAG”, for which the binding signal was 8080 fluorescence intensity (a.u.).

On to “GTACAAGCTATACACGTGGTTTCATGTCTTGGCGCTTTATCGGAGTCACCTAGTGCAG”, for which the binding signal is 9580 fluorescence intensity (a.u.).

Regarding “GGTTGGTGTGCAGGTCTGCGTGTGGGATTTCCGCCAGCATCGGAGTCACCTAGTGCAG”, the binding signal is 8460 fluorescence intensity (a.u.).

Regarding “GGTATGCGCCACTGACTTCAAGCTTCTATTCATACATAATCGGAGTCACCTAGTGCAG”, the binding signal was 9870 fluorescence intensity (a.u.).

As to “TCTCTCTCTCTACAAATCTCTCCCTTTTTTGTGGGTGTGTCGGAGTCACCTAGTGCAG”, the binding signal is 10600 fluorescence intensity (a.u.).

Regarding “ACGGTTTTGTATAGTTTAGGGGTGAAGATTTCTGGTATTCCGGAGTCACCTAGTGCAG”, the binding signal is 9350 fluorescence intensity (a.u.).

Take “GTGGTGTTGGTACTAGTGTGTTCGTTCCTCCTAGTAAAATCGGAGTCACCTAGTGCAG”: the binding signal is 8320 fluorescence intensity (a.u.).

“AGTTTTATCCTCTTGTTTTGCAGTATGCCCAACAACAATGCGGAGTCACCTAGTGCAG”: the binding signal is 8770 fluorescence intensity (a.u.).

In the case of “TGGGTTGGTGGAGTTCTCATATGGCTCAGACATGGTCTCACGGAGTCACCTAGTGCAG”, the binding signal is 8380 fluorescence intensity (a.u.).

In the case of “GACGCAAGGGTAAGGGTAAGGGTAAGGGTAGGGCAGAGCGCGGAGTCACCTAGTGCAG”, the binding signal is 8600 fluorescence intensity (a.u.).

Consider “TTTGATTTGATCTTTTAGTTTTGGATGTTGGTATGCTGTGCGGAGTCACCTAGTGCAG”, for which the binding signal is 8590 fluorescence intensity (a.u.).

“ATGCTTACCTCATTGCAGCTAGTCCACCATCAATTCCACTCGGAGTCACCTAGTGCAG”: the binding signal is 10000 fluorescence intensity (a.u.).

Take “TGTACATGTGTTTGATTTTGCTTGTGGTTGCCGTGGATTTCGGAGTCACCTAGTGCAG”: the binding signal is 11500 fluorescence intensity (a.u.).

On to “CGCCTCTTTTCGTTTCGTTTCGCCGCCCGCTTCCGCCGCGCGGAGTCACCTAGTGCAG”, for which the binding signal is 23300 fluorescence intensity (a.u.).

Consider “GCCGACCGCAGCCTATCTCACCATGTTCTTTTAGGGCAAACGGAGTCACCTAGTGCAG”, for which the binding signal was 8890 fluorescence intensity (a.u.).

For the sequence “GGTGGGGTAGGGTACCACTACACTCCGGCCTGCCTCCGGACGGAGTCACCTAGTGCAG”, the binding signal is 8220 fluorescence intensity (a.u.).

As for “CACATCAAAACTTTCTTACACACAAACTTCCAACTTTTCCCGGAGTCACCTAGTGCAG”, the binding signal is 8650 fluorescence intensity (a.u.).

These data come from paper PMC7819943, “Rice protein-binding microarrays: a tool to detect cis-acting elements near promoter regions in rice”.
